Source: patent US9370589B2, “Switching fluorescent nanoparticle probe and fluorescent particle imaging method using same” (SHIMADZU CORPORATION, priority 2010, dated 2016)
At least one structure is not confirmed: it was looked up by name or label, or the drawing left a doubt.

Amino acid sequences for entries named in this document (tags omitted). Residues count along the entry.
UniProt P02769, 25-607: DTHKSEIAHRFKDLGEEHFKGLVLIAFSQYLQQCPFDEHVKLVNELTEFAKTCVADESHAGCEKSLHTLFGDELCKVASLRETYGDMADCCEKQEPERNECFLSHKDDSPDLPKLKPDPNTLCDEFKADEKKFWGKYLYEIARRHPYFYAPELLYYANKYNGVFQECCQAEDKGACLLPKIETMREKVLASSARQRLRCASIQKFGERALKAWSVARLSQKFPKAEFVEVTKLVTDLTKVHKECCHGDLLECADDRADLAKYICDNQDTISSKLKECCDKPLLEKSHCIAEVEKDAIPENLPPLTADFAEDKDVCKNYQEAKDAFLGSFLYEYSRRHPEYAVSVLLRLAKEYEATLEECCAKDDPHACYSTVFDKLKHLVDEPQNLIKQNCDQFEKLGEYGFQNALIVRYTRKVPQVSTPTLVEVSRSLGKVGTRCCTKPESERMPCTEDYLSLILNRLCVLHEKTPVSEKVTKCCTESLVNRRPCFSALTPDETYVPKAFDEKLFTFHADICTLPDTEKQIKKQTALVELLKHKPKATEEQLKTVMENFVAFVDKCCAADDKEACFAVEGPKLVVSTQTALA

Experiments:
albumin (BSA) = albumin (BSA) (Bos taurus, UniProt P02769); test: Fluorescence intensity before and after change in external environment (addition of 5 wt % BSA); conditions: lactosome containing 20 mol % of dye (IC7-2: 15 mol %); for Ratio of fluorescence intensity (A/B): 5 wt % BSA versus PBS; for Fluorescence maximum: addition of 5 wt % BSA, polymer 1/15 mg/mL; for Fluorescence intensity (A): after addition of 5 wt % BSA; for Fluorescence intensity (PBS)(B): in PBS, at the BSA fluorescence maximum wavelength
[1] = Dependence of fluorescence intensity of fluorescent dye-encapsulating lactosome on fluorescent dye content; type: physicochemical; conditions: for fluorescent dye content at which the intensity of fluorescence in PBS was maximized: polymer 1/15 mg/mL
Experimental: Lactosomes encapsulating, as a fluorescent dye, IC7-1, IC7-2, IR820, IR783, or IR806 were prepared by changing the fluorescent dye content (1 mg/mL), and were then mixed with PBS, 5 wt % SDS, 5 wt % BSA, or plasma 1:1 (volume ratio), and the mixture was allowed to stand at room temperature for 30 minutes under lightproof conditions, and then diluted with PBS so that the concentration of the amphiphilic polymer was 1/15 mg/mL to measure the intensity of fluorescence using Fluorolog-3 (HORIBA Jobin Yvon Inc.) (FIG. 6).

[2] = Fluorescence intensity before and after change in external environment (addition of plasma); conditions: for Fluorescence maximum: lactosome (PSar-PLLA) containing 20 mol % of dye (IC7-2: 15 mol %), addition of plasma, polymer 1/15 mg/mL; for Fluorescence intensity (A) / Fluorescence intensity (PBS)(B) / Ratio of fluorescence intensity (A/B): lactosome containing 20 mol % of dye (IC7-2: 15 mol %); for Fluorescence intensity (A): after addition of plasma; for Fluorescence intensity (PBS)(B): in PBS, at the plasma fluorescence maximum wavelength; for Ratio of fluorescence intensity (A/B): plasma versus PBS
[3] = Fluorescence intensity before and after change in external environment (addition of 5 wt % SDS); conditions: lactosome containing 20 mol % of dye (IC7-2: 15 mol %); for Ratio of fluorescence intensity (A/B): 5 wt % SDS versus PBS; for Fluorescence maximum: addition of 5 wt % SDS, polymer 1/15 mg/mL; for Fluorescence intensity (A): after addition of 5 wt % SDS; for Fluorescence intensity (PBS)(B): in PBS, at the SDS fluorescence maximum wavelength
[4] = lactosome with varied dye content

| Compound | Ratio of fluorescence intensity (A/B) (albumin (BSA)) | Fluorescence maximum (albumin (BSA)) [nm] | Fluorescence intensity (A) (albumin (BSA)) | Fluorescence intensity (PBS)(B) (albumin (BSA)) | intensity of fluorescence by adding SDS, BSA, or plasma [1, 4] | fluorescent dye content at which the intensity of fluorescence in PBS was maximized ([1]; lactosome) [mol %] | Fluorescence maximum [2] [nm] | Fluorescence intensity (A) [2] | Fluorescence intensity (PBS)(B) [2] | Ratio of fluorescence intensity (A/B) [2] | Ratio of fluorescence intensity (A/B) [3] | Fluorescence maximum [3] [nm] | Fluorescence intensity (A) [3] | Fluorescence intensity (PBS)(B) [3] | intensity of fluorescence by adding SDS or plasma [1, 4] | intensity of fluorescence by adding BSA ([1]; lactosome, fluorescent dye content 5 mol % or more) |
| --- | --- | --- | --- | --- | --- | --- | --- | --- | --- | --- | --- | --- | --- | --- | --- | --- |
| CC1(C)C(/C=C/C2=C(Cl)C(=C/C=C3\N(CCCCS(=O)(=O)[O-])c4ccccc4C3(C)C)/CC2)=[N+](CCCCS(=O)(=O)[O-])c2ccccc21.[Na+] [IR806] | 16.2 | 801 | 591322 | 36395 | increased with dependence on fluorescent dye content | 5 | 806 | 693318 | 42632 | 16.3 | 9.4 | 835 | 273806 | 29191 |  |  |
| CC1(C)C(/C=C/C2=C(Cl)C(=C/C=C3\N(CCCCS(=O)(=O)[O-])c4ccc5ccccc5c4C3(C)C)/CCC2)=[N+](CCCCS(=O)(=O)[O-])c2ccc3ccccc3c21.[Na+] [IR820] | 36.2 | 841 | 39046 | 1079 |  | 5 | 852 | 109922 | 1025 | 107.2 | 88.2 | 849 | 97271 | 1103 | increased with dependence on fluorescent dye content | almost constant |
